Laboratory results: PubChem BioAssay AID743448 (Peter MacCallum Cancer Centre, 2014)

- Assay: 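Third-round triage of 106 confirmed candidates in four colon lines under two drugs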 (follow-up of hits)
- Cells: four human colon cancer cell lines: HCT116-VR (vorinostat-resistant HCT116 derivative), SW480, SW620 and LIM1215
- Reagent: siRNA pool against human genes, 40 nM siRNA pool
- Timing: drug added two days after transfection, read one day later
- Treatment: vorinostat 2.5 µM on one half of each plate, etoposide 5 µM on the other half
- Detection: 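Caspase 3/7 activity by luminescence and live-cell viability by fluorescence, each given as a ratio to mock-transfected wells and as a robust z-score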
- Scale: caspase ratio to mock: higher = more caspase activity than mock; viability ratio to mock: higher = more live cells than mock; caspase robust z-score: higher = more caspase activity, more apoptosis; viability robust z-score: higher = more live cells
- Call rule: 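Hit means caspase ratio to mock at least 1.6, or viability ratio to mock at most 0.75; wells with strong death in the absence of drug get no call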
- Meaning of the calls: active = caspase or viability hit in this panel; inactive = no change, or unhealthy well
The whole screen tested 106 reagents; below is an unselected part. 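Calls are per line and drug panel including etoposide, not vorinostat-specific; gene picks needed hits in two or more extra lines with vorinostat versus etoposide.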 Unmarked entries are inactive.

caspase ratio to mock	viability ratio to mock	caspase robust z-score	viability robust z-score	Gene	PubChem SID	cell line and drug panel
1.68 (active)	0.83	-0.39	-0.59	POLR2J (RNA polymerase II subunit J)	SID152155691	LIM1215 cells with etoposide
1.98 (active)	0.8	-0.16	-0.8	POLR2J (RNA polymerase II subunit J)	SID152155691	LIM1215 cells with vorinostat
1.31	0.98	-0.56	0.68	POLR2J (RNA polymerase II subunit J)	SID152155691	SW480 cells with etoposide
1.44	0.82	-0.57	-0.38	POLR2J (RNA polymerase II subunit J)	SID152155691	SW480 cells with vorinostat
1.36	0.9	0.44	0.12	POLR2J (RNA polymerase II subunit J)	SID152155691	SW620 cells with etoposide
1.46	0.78	0.29	-0.96	POLR2J (RNA polymerase II subunit J)	SID152155691	SW620 cells with vorinostat
3.52 (active)	0.92	2.34	-0.11	POLR2J (RNA polymerase II subunit J)	SID152155691	vorinostat-resistant HCT116 cells with etoposide
2.62 (active)	0.85	0.54	-0.39	POLR2J (RNA polymerase II subunit J)	SID152155691	vorinostat-resistant HCT116 cells with vorinostat
3.12 (active)	0.72	0.92	-1.36	AMDHD2 (amidohydrolase domain containing 2)	SID134313510	LIM1215 cells with etoposide
2.38 (active)	0.86	0.38	-0.41	AMDHD2 (amidohydrolase domain containing 2)	SID134313510	LIM1215 cells with vorinostat
3.42 (active)	0.88	1.06	0.05	AMDHD2 (amidohydrolase domain containing 2)	SID134313510	SW480 cells with etoposide
1.6 (active)	0.9	-0.24	0.09	AMDHD2 (amidohydrolase domain containing 2)	SID134313510	SW480 cells with vorinostat
1.12	0.84	-0.12	-0.48	AMDHD2 (amidohydrolase domain containing 2)	SID134313510	SW620 cells with etoposide
1.27	0.94	-0.23	0.19	AMDHD2 (amidohydrolase domain containing 2)	SID134313510	SW620 cells with vorinostat
1.91 (active)	0.92	0.22	-0.08	AMDHD2 (amidohydrolase domain containing 2)	SID134313510	vorinostat-resistant HCT116 cells with etoposide
2.59 (active)	0.96	0.52	0.31	AMDHD2 (amidohydrolase domain containing 2)	SID134313510	vorinostat-resistant HCT116 cells with vorinostat
1.65 (active)	0.7	-0.55	-1.48	LRP3 (LDL receptor related protein 3)	SID134323387	LIM1215 cells with etoposide
1.17	0.91	-1.15	-0.05	LRP3 (LDL receptor related protein 3)	SID134323387	LIM1215 cells with vorinostat
1.31	0.76	-0.57	-0.76	LRP3 (LDL receptor related protein 3)	SID134323387	SW480 cells with etoposide
1.28	0.98	-0.92	0.58	LRP3 (LDL receptor related protein 3)	SID134323387	SW480 cells with vorinostat
0.88	0.84	-0.69	-0.46	LRP3 (LDL receptor related protein 3)	SID134323387	SW620 cells with etoposide
1.43	0.98	0.22	0.5	LRP3 (LDL receptor related protein 3)	SID134323387	SW620 cells with vorinostat
1.63 (active)	0.89	-0.14	-0.22	LRP3 (LDL receptor related protein 3)	SID134323387	vorinostat-resistant HCT116 cells with etoposide
2.25 (active)	0.98	0.06	0.39	LRP3 (LDL receptor related protein 3)	SID134323387	vorinostat-resistant HCT116 cells with vorinostat
1.72 (active)	0.86	-0.36	-0.44	NUP133 (nucleoporin 133)	SID135622504	LIM1215 cells with etoposide
2.23 (active)	0.96	0.19	0.3	NUP133 (nucleoporin 133)	SID135622504	LIM1215 cells with vorinostat
2.5 (active)	0.84	0.34	-0.2	NUP133 (nucleoporin 133)	SID135622504	SW480 cells with etoposide
1.79 (active)	0.8	0.18	-0.53	NUP133 (nucleoporin 133)	SID135622504	SW480 cells with vorinostat
1.36	0.77	0.44	-1.21	NUP133 (nucleoporin 133)	SID135622504	SW620 cells with etoposide
1.1 (active)	0.6	-0.74	-2.2	NUP133 (nucleoporin 133)	SID135622504	SW620 cells with vorinostat
2.98 (active)	0.74	1.62	-1.17	NUP133 (nucleoporin 133)	SID135622504	vorinostat-resistant HCT116 cells with etoposide
3.26 (active)	0.8	1.47	-0.68	NUP133 (nucleoporin 133)	SID135622504	vorinostat-resistant HCT116 cells with vorinostat
4.37 (active)	1.22	2.15	2	RERE (arginine-glutamic acid dipeptide repeats)	SID135621556	LIM1215 cells with etoposide
2.12 (active)	1.15	-0.02	1.77	RERE (arginine-glutamic acid dipeptide repeats)	SID135621556	LIM1215 cells with vorinostat
2.86 (active)	1.1	0.63	1.55	RERE (arginine-glutamic acid dipeptide repeats)	SID135621556	SW480 cells with etoposide
1.75 (active)	1.1	0.1	1.42	RERE (arginine-glutamic acid dipeptide repeats)	SID135621556	SW480 cells with vorinostat
1.06	1	-0.22	1.2	RERE (arginine-glutamic acid dipeptide repeats)	SID135621556	SW620 cells with etoposide
1.18	0.98	-0.48	0.54	RERE (arginine-glutamic acid dipeptide repeats)	SID135621556	SW620 cells with vorinostat
1.64 (active)	1.17	-0.1	1.42	RERE (arginine-glutamic acid dipeptide repeats)	SID135621556	vorinostat-resistant HCT116 cells with etoposide
2.24 (active)	1.03	0.09	0.72	RERE (arginine-glutamic acid dipeptide repeats)	SID135621556	vorinostat-resistant HCT116 cells with vorinostat
3.11	0.9	1	-0.08	IQSEC1 (IQ motif and Sec7 domain ArfGEF 1)	SID152154675	LIM1215 cells with etoposide
1.89 (active)	1.09	-0.29	1.32	IQSEC1 (IQ motif and Sec7 domain ArfGEF 1)	SID152154675	LIM1215 cells with vorinostat
4.45	0.79	1.87	-0.52	IQSEC1 (IQ motif and Sec7 domain ArfGEF 1)	SID152154675	SW480 cells with etoposide
2.17 (active)	0.72	1	-1.04	IQSEC1 (IQ motif and Sec7 domain ArfGEF 1)	SID152154675	SW480 cells with vorinostat
1.42	0.86	0.57	-0.36	IQSEC1 (IQ motif and Sec7 domain ArfGEF 1)	SID152154675	SW620 cells with etoposide
1.41	0.9	0.16	-0.04	IQSEC1 (IQ motif and Sec7 domain ArfGEF 1)	SID152154675	SW620 cells with vorinostat
2.38 (active)	0.84	0.86	-0.52	IQSEC1 (IQ motif and Sec7 domain ArfGEF 1)	SID152154675	vorinostat-resistant HCT116 cells with etoposide
1.88 (active)	0.91	-0.32	-0.01	IQSEC1 (IQ motif and Sec7 domain ArfGEF 1)	SID152154675	vorinostat-resistant HCT116 cells with vorinostat
2.78 (active)	0.82	0.65	-0.7	ANKRD13C-DT (ANKRD13C divergent transcript)	SID152152825	LIM1215 cells with etoposide
2.13 (active)	0.92	0.04	0.06	ANKRD13C-DT (ANKRD13C divergent transcript)	SID152152825	LIM1215 cells with vorinostat
3.01 (active)	0.64	0.75	-1.54	ANKRD13C-DT (ANKRD13C divergent transcript)	SID152152825	SW480 cells with etoposide
1.77 (active)	0.72	0.14	-0.98	ANKRD13C-DT (ANKRD13C divergent transcript)	SID152152825	SW480 cells with vorinostat
0.97	0.86	-0.46	-0.3	ANKRD13C-DT (ANKRD13C divergent transcript)	SID152152825	SW620 cells with etoposide
1.23	0.88	-0.38	-0.22	ANKRD13C-DT (ANKRD13C divergent transcript)	SID152152825	SW620 cells with vorinostat
2.15 (active)	0.82	0.56	-0.58	ANKRD13C-DT (ANKRD13C divergent transcript)	SID152152825	vorinostat-resistant HCT116 cells with etoposide
1.75 (active)	0.92	-0.41	-0.02	ANKRD13C-DT (ANKRD13C divergent transcript)	SID152152825	vorinostat-resistant HCT116 cells with vorinostat
1.18	0.84	-1.04	-0.57	EIF4A1 (eukaryotic translation initiation factor 4A1)	SID135623929	LIM1215 cells with etoposide
1.14	0.9	-1.21	-0.12	EIF4A1 (eukaryotic translation initiation factor 4A1)	SID135623929	LIM1215 cells with vorinostat
0.56 (active)	0.72	-1.15	-0.99	EIF4A1 (eukaryotic translation initiation factor 4A1)	SID135623929	SW480 cells with etoposide
1.12	0.84	-1.25	-0.24	EIF4A1 (eukaryotic translation initiation factor 4A1)	SID135623929	SW480 cells with vorinostat
0.74 (active)	0.72	-0.98	-1.74	EIF4A1 (eukaryotic translation initiation factor 4A1)	SID135623929	SW620 cells with etoposide
0.72	0.9	-1.75	-0.14	EIF4A1 (eukaryotic translation initiation factor 4A1)	SID135623929	SW620 cells with vorinostat
0.7	0.76	-1.35	-0.98	EIF4A1 (eukaryotic translation initiation factor 4A1)	SID135623929	vorinostat-resistant HCT116 cells with etoposide
0.98	0.93	-1.38	0.06	EIF4A1 (eukaryotic translation initiation factor 4A1)	SID135623929	vorinostat-resistant HCT116 cells with vorinostat
